Source: patent US20240254174A1 (priority 2023, published 2024)
At least one structure is not confirmed: it was looked up by name or label, or the drawing left a doubt.

By UniProt entry, the sequences of proteins in these tests, tags left out. Residues count along the entry.
UniProt P36544, 23-502 limits assumed: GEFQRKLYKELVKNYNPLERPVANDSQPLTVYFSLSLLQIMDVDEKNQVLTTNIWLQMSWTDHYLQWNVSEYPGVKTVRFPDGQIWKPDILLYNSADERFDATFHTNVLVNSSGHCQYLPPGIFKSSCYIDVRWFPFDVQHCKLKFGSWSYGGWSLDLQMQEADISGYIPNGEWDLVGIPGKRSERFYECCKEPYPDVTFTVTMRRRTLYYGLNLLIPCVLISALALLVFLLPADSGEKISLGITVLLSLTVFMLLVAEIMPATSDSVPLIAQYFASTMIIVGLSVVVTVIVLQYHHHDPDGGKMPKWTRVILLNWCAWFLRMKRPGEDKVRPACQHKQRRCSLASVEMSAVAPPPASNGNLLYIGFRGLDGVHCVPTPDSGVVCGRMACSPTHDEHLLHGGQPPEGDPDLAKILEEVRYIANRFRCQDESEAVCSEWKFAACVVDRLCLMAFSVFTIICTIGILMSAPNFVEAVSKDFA
UniProt Q9GZZ6, 25-450 limits assumed: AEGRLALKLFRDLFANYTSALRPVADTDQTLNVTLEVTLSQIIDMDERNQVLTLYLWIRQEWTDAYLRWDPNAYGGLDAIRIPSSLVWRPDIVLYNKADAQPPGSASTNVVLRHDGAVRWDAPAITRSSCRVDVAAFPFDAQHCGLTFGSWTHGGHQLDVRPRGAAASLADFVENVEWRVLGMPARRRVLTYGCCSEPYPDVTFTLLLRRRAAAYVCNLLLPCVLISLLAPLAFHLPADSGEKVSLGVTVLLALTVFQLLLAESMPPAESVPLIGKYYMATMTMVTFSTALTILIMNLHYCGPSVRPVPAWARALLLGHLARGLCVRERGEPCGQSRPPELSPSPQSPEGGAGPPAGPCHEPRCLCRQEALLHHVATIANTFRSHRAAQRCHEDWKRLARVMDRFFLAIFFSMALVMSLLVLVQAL
UniProt Q9UGM1, 26-479 limits assumed: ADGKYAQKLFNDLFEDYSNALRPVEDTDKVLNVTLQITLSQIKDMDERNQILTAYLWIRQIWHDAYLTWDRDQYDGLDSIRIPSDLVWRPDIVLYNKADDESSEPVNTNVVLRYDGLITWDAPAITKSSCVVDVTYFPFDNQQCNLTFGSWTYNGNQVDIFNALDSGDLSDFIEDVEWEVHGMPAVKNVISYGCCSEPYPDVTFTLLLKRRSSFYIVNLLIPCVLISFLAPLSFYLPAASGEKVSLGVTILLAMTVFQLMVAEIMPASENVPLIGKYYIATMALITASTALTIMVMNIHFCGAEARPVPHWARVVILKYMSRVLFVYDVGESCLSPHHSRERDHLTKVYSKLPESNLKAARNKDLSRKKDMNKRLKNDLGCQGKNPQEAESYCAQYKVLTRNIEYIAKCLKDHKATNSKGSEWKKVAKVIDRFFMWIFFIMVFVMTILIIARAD

Columns and labels:
[1] = molecular target: α7 nAChR (Homo sapiens, UniProt P36544); assay type: cell-based; conditions: read-out: α7 nAChR potency (IC50, concentration response profile)
[2] = molecular target: α9α10 nAChR (Homo sapiens, UniProt Q9GZZ6+Q9UGM1); assay type: cell-based; conditions: read-out: α9α10 nAChR potency (IC50, concentration response profile)

## CSCC[C@H](NC(=O)[C@H](CCCCN)NC(=O)[C@H](CCCNC(=N)N)NC(=O)[C@@H](N)Cc1ccc(O)cc1)C(=O)N[C@@H](Cc1c[nH]c2ccccc12)C(=O)N[C@@H](CCSC)C(=O)N1CCC[C@H]1C(=O)N[C@@H](CCC(=O)O)C(=O)N[C@@H](CC(N)=O)C(=O)N1CCC[C@H]1C(=O)N[C@@H](CCCNC(=N)N)C(=O)N[C@@H](CC(C)C)C(=O)NCC(=O)N[C@H](C(=O)N[C@@H](CO)C(=O)N[C@@H](CS)C(=O)N[C@@H](CC(=O)O)C(=O)N[C@@H](C)C(=O)N[C@@H](Cc1ccccc1)C(=O)N[C@@H](CS)C(=O)N[C@@H](CO)C(=O)N[C@@H](CO)C(=O)N[C@@H](CCCNC(=N)N)C(=O)NCC(=O)N[C@@H](CCCCN)C(=O)N[C@H](C(=O)N[C@H](C(=O)N[C@@H](CCC(=O)O)C(=O)N[C@@H](CC(C)C)C(=O)NCC(=O)O)C(C)C)C(C)C)[C@@H](C)O [lead peptide]
[1]
  IC50: 20 ± 2 µM
[2]
  IC50: 54 ± 7 µM
